No constants are given. Whether binding was seen depends on the method and setting. Binding seen in cells or lysates may run through a third protein. Some results given as binding are weak or reduced against the parent protein; the word gives no strength.
How the values were obtained:
[1] = biological target: ERK2 (of ERK1/2), endogenous in OT-I CD8+ CTLs (mouse (endogenous in OT-I CD8+ CTLs)) (UniProt P63085); experiment: co-IP; endogenous proteins in OT-I CTL lysate (RIPA lysis buffer), precipitated with an ERK1/2 antibody and protein G-coupled sepharose beads, immunoblot
[2] = biological target: ERK1 (of ERK1/2), endogenous in OT-I CD8+ CTLs (mouse (endogenous in OT-I CD8+ CTLs)) (UniProt Q63844); experiment: as above

The chains behind the UniProt entries cited, without tags or fusion partners.
UniProt P63085: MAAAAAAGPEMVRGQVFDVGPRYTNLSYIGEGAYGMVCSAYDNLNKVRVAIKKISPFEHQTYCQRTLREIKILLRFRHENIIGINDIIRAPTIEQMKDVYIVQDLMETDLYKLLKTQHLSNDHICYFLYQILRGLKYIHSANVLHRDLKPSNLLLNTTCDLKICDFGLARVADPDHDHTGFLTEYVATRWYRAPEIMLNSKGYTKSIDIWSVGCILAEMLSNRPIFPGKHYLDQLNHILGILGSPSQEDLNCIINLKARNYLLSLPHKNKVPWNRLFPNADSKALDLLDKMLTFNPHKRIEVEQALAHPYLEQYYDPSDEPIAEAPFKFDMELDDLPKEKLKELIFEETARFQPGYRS
UniProt Q63844: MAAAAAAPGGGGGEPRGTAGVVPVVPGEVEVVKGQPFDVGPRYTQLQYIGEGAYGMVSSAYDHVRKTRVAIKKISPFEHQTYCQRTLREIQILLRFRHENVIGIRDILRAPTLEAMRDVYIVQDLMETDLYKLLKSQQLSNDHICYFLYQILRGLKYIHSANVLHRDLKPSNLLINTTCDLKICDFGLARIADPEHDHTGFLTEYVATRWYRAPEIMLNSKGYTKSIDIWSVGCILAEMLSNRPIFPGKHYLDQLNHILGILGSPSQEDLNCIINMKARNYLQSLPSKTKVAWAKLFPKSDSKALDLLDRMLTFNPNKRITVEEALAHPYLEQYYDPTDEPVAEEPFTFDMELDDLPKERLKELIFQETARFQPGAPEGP

binding [1]: binds | binding [2]: binds
B1: endogenous ULK1 in OT-I CD8+ CTLs (protein, UniProt O70405 1-1051)
chain: MEPGRGGVETVGKFEFSRKDLIGHGAFAVVFKGRHREKHDLEVAVKCINKKNLAKSQTLLGKEIKILKELKHENIVALYDFQEMANSVYLVMEYCNGGDLADYLHTMRTLSEDTVRLFLQQIAGAMRLLHSKGIIHRDLKPQNILLSNPGGRRANPSNIRVKIADFGFARYLQSNMMAATLCGSPMYMAPEVIMSQHYDGKADLWSIGTIVYQCLTGKAPFQASSPQDLRLFYEKNKTLVPAIPRETSAPLRQLLLALLQRNHKDRMDFDEFFHHPFLDASTPIKKSPPVPVPSYPSSGSGSSSSSSSASHLASPPSLGEMPQLQKTLTSPADAAGFLQGSRDSGGSSKDSCDTDDFVMVPAQFPGDLVAEAASAKPPPDSLLCSGSSLVASAGLESHGRTPSPSPTCSSSPSPSGRPGPFSSNRYGASVPIPVPTQVHNYQRIEQNLQSPTQQQTARSSAIRRSGSTTPLGFGRASPSPPSHTDGAMLARKLSLGGGRPYTPSPQVGTIPERPSWSRVPSPQGADVRVGRSPRPGSSVPEHSPRTTGLGCRLHSAPNLSDFHVVRPKLPKPPTDPLGATFSPPQTSAPQPCPGLQSCRPLRGSPKLPDFLQRSPLPPILGSPTKAGPSFDFPKTPSSQNLLTLLARQGVVMTPPRNRTLPDLSEASPFHGQQLGSGLRPAEDTRGPFGRSFSTSRITDLLLKAAFGTQASDSGSTDSLQEKPMEIAPSAGFGGTLHPGARGGGASSPAPVVFTVGSPPSGATPPQSTRTRMFSVGSSSSLGSTGSSSARHLVPGACGEAPELSAPGHCCSLADPLAANLEGAVTFEAPDLPEETLMEQEHTETLHSLRFTLAFAQQVLEIAALKGSASEAAGGPEYQLQESVVADQISQLSREWGFAEQLVLYLKVAELLSSGLQTAIDQIRAGKLCLSSTVKQVVRRLNELYKASVVSCQGLSLRLQRFFLDKQRLLDGIHGVTAERLILSHAVQMVQSAALDEMFQHREGCVPRYHKALLLLEGLQHTLTDQADIENIAKCKLCIERRLSALLSGVYA

Source: publication PMC11095213
